Measured data: PubChem BioAssay AID504786 (Drosophila RNAi Screening Center, 2011)

Purpose: 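Fly genes required for HIF-dependent transcription when hypoxia is mimicked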 (primary screen)
Cells: Drosophila S2 cells with a stable HIF luciferase reporter
Reagents: long dsRNA against Drosophila genes, about 0.2 µg dsRNA per well of a 384-well plate
Time to read-out: three days of knock-down, then 20 h of DFO before reading
Challenge: desferrioxamine (DFO) at 100 µM, an iron chelator that mimics hypoxia, for 20 h
Detection: 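Firefly luciferase driven by the mouse ldh-a hypoxia-response element, measured after 20 h of 100 µM DFO; z-scores per plate, higher means more signal lost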
Scale: z-score: higher = stronger loss of HIF reporter signal
The deposit covers about 21,000 reagents; shown is a random part of those with a known target gene and a result. 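Primary screen; positive scores mean lost reporter signal, so the sign may be inverted from the usual convention.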 The numbers tell different reagents against one gene apart.

Which result is listed for caup?
z-score, replicate 1: 0.8; z-score, replicate 2: -0.2

For CG1773, what was measured?
z-score, replicate 1: -0.4; z-score, replicate 2: -0.4

What did the screen give for PIG-F?
z-score, replicate 1: -0.3; z-score, replicate 2: 0.1

What is on record for Pbp45?
z-score, replicate 1: -0.4; z-score, replicate 2: -0.4

How did the screen score sick #1?
z-score, replicate 1: -0.5; z-score, replicate 2: -0.8

For sick #2, what does the deposit list?
z-score, replicate 1: -0.4; z-score, replicate 2: -0.1

What is on record for sick #3?
z-score, replicate 1: -0.3; z-score, replicate 2: -0.1

What did the screen give for sick #4?
z-score, replicate 1: -0.3; z-score, replicate 2: 0.7

For sick #5, what was measured?
z-score, replicate 1: -0.1; z-score, replicate 2: 0.3

Which result is listed for CG15742?
z-score, replicate 1: -0.4; z-score, replicate 2: -0.7

For Ir56d, what was measured?
z-score, replicate 1: -0.3; z-score, replicate 2: -0.5

With CG7139, what does the deposit list?
z-score, replicate 1: -0.2; z-score, replicate 2: -0.4

With CG8252, what was measured?
z-score, replicate 1: -0.3; z-score, replicate 2: -0.1

For CG8379, what does the deposit list?
z-score, replicate 1: 0.3; z-score, replicate 2: -0.1

How did the screen score BuGZ #1?
z-score, replicate 1: 0.7; z-score, replicate 2: 1.1

How did the screen score BuGZ #2?
z-score, replicate 1: -0.3; z-score, replicate 2: -0.3

Records above whose gene name starts with B or b (2):
BuGZ #1: z-score, replicate 1 = 0.7; z-score, replicate 2 = 1.1
BuGZ #2: z-score, replicate 1 = -0.3; z-score, replicate 2 = -0.3
